Experimental data taken from patent US6436682B1, “Luciferases, fluorescent proteins, nucleic acids encoding the luciferases and fluorescent proteins and the use thereof in diagnostics, high throughput screening and novelty items” (Prolume, Ltd., priority 1998, dated 2002).

Assay: Fluorescence excitation and emission spectra of recombinant GFPs
Type: physicochemical

B1: Renilla mulleri GFP: green fluorescent protein of Renilla mulleri, 238 amino acids, SEQ ID No. 16 (protein, listed as Renilla mulleri)
chain: MSKQILKNTCLQEVMSYKVNLEGIVNNHVFTMEGCGKGNILFGNQLVQIRVTKGAPLPFAFDIVSPAFQYGNRTFTKYPNDISDYFIQSFPAGFMYERTLRYEDGGLVEIRSDINLIEDKFVYRVEYKGSNFPDDGPVMQKTILGIEPSFEAMYMNNGVLVGEVILVYKLNSGKYYSCHMKTLMKSKGVVKEFPSYHFIQHRLEKTYVEDGGFVEQHETAIAQMTSIGKPLGSLHEWV
modifications: Renilla mulleri Green Fluorescent Protein (GFP)
With B1 the fluorescence excitation maximum (partially purified recombinant protein) was ~498 nm and the fluorescence emission maximum (recombinant protein) was 506 nm.
